The source of these data is publication PMC11091967, “Silicon-Rhodamine Functionalized Evocalcet Probes Potently and Selectively Label Calcium Sensing Receptors In Vitro, In Vivo, and Ex Vivo” (ACS Pharmacology & Translational Science, 2024).

This data set deals with hair cells of the neuromasts within the lateral line organ. Briefly: In vivo labeling of neuromasts in zebrafish larvae. The arrangement: species or system zebrafish (Danio rerio). The following applies: for background fluorescence: 4–6 dpf larvae. The procedure:
For the neuromast labeling experiments, wild-type 4–6 days post fertilization (dpf) zebrafish larvae were incubated in 200 μL of E3 medium containing different doses of the SiR probes (500–5000 nM), 2.5 μM 4-(4-diethylaminostyryl)-1-methyl-pyridinium-iodid (DiAsp, Sigma, D3418), which specifically labels hair cells in the lateral line in 0.5% DMSO for 30 min (35). Next, washing and anesthesia were achieved by placing the larvae in a 35 mm imaging dish (MolBiTec, Imaging dish 1.5) which contained 500 μL of E3 medium with 168 mg/L MS-222 (Tricaine Mehanesulfonate, Sigma) for 10 min. After removing the solution, fish were side-embedded in the imaging dish using 500 μL of 0.75% low-melting temperature agarose (Sigma, A4018). Wide-field imaging was done using the Zeiss Axio Observer fluorescence microscope (LD A-Plan 10× objective, NA = 0.25), and confocal imaging was done using a Zeiss LSM 800 confocal fluorescence microscope (LD LCI Plan-Apochromat 25× objective, NA = 0.8).

`Cc1cc(C(=O)NCCCCNC(=O)Cc2ccc(N3CC[C@H](N[C@H](C)c4cccc5ccccc45)C3)cc2)ccc1C1=C2C=CC(=[N+](C)C)C=C2[Si](C)(C)c2cc(N(C)C)ccc21` [EvoSiR4] had a background fluorescence of 1339 ± 803 AU. On the same count and under the same terms, next, `Cc1cc(C(=O)NCCCCCCNC(=O)Cc2ccc(N3CC[C@H](N[C@H](C)c4cccc5ccccc45)C3)cc2)ccc1C1=C2C=CC(=[N+](C)C)C=C2[Si](C)(C)c2cc(N(C)C)ccc21` [EvoSiR6]: 1715 ± 580 AU. In turn, `Cc1cc(C(=O)NCCCCN)ccc1C1=C2C=CC(=[N+](C)C)C=C2[Si](C)(C)c2cc(N(C)C)ccc21` [SiR (4)] gave a background fluorescence of 5298 ± 2367 AU. The “fold higher background fluorescence than EvoSiR probes” value (zebrafish, in vivo) is recorded as “approximately 4 fold”.
